Assay results taken from article PMC8506026.
Results are given in words; binding and its absence hold for the method and conditions named. In cells and extracts the contact can be indirect. Some binding calls cover weakened binding; strength is not graded here.

Sequences of proteins named here, by UniProt entry; tags and fusion partners are left off.
UniProt Q03113: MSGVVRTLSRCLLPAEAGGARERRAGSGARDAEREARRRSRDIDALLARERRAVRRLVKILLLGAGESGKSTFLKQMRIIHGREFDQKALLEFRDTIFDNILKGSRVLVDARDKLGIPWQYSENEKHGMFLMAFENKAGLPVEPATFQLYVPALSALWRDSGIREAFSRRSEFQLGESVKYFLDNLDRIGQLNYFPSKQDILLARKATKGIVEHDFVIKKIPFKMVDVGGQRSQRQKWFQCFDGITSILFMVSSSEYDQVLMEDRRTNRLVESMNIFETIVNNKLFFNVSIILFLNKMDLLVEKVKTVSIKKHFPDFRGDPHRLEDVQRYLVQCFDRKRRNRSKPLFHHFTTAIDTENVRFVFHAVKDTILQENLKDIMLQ
UniProt Q9NZN5: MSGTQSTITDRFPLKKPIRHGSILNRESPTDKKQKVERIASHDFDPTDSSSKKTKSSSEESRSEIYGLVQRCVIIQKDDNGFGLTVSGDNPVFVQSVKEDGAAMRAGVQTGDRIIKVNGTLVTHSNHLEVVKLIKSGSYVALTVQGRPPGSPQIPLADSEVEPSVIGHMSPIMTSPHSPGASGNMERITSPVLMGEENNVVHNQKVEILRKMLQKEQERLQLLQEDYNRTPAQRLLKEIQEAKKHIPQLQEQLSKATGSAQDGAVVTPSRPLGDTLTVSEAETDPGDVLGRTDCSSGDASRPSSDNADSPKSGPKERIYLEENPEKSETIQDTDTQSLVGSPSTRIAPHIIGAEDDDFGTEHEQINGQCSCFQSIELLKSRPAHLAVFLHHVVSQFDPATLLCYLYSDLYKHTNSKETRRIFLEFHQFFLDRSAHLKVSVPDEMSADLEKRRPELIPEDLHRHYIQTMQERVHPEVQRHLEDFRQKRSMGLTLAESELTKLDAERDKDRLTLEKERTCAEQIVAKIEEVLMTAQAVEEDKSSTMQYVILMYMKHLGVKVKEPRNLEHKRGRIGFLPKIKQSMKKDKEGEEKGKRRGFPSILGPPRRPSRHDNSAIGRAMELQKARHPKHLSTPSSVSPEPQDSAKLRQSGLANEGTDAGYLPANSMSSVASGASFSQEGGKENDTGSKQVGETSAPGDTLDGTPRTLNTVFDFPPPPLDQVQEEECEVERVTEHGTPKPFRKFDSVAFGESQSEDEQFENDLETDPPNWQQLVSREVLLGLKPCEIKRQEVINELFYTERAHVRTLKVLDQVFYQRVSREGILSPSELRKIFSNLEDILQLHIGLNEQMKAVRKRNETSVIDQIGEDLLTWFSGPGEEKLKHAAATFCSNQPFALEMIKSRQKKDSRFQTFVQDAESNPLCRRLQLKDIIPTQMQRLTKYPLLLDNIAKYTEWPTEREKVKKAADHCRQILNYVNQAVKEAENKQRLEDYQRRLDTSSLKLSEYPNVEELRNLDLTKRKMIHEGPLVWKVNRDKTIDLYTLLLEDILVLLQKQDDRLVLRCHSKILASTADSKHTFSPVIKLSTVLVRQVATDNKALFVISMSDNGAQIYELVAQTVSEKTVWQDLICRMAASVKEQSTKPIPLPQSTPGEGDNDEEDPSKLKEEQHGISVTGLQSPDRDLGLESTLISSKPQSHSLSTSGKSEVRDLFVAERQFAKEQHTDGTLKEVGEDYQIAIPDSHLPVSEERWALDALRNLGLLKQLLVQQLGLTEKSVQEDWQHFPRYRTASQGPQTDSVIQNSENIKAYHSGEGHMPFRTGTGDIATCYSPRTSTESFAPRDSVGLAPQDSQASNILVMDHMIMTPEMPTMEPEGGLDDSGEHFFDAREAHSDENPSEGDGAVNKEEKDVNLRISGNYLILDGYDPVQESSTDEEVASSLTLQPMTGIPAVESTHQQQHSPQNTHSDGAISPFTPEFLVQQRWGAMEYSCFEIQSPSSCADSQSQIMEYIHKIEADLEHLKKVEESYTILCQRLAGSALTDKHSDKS

Target: Gα12 (human (endogenous in TPC1 and FTC-133)) (UniProt Q03113)
Test: co-IP; endogenous proteins in whole-cell lysates (M-PER, protease and phosphatase inhibitors) of TPC1 and FTC-133 thyroid cancer cells, pre-cleared with Protein A/G Dynabeads, 2 mg/ml lysate; control IgG; immunoblot

**Q.** For “leukemia associated RhoA guanine exchange factor (LARG) (from UniProt Q9NZN5 1-1544)”, which binding is on record?
**A.** The binding was “binds”.
